Source: the supplement of paper PMC10849652
This is one part of the list.

The chains behind the UniProt entries cited, without tags or fusion partners. Where a name states a change or a piece, a line headed by the entry shows the natural chain unless it says otherwise.
UniProt Q9NWS0, whole entry, looked up: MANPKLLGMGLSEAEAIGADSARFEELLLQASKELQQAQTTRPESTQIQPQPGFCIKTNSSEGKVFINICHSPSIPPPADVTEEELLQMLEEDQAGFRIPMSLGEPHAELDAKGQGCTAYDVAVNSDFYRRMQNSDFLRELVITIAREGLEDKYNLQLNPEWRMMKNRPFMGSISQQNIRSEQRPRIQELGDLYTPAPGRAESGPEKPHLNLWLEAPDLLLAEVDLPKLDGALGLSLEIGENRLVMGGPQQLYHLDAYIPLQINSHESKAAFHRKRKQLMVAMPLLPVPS
UniProt Q9GZP4: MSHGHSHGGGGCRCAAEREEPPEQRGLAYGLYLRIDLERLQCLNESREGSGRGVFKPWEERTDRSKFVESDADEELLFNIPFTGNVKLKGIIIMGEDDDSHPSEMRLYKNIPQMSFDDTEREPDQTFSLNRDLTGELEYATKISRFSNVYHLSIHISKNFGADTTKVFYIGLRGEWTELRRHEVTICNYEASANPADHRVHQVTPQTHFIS
UniProt P17858: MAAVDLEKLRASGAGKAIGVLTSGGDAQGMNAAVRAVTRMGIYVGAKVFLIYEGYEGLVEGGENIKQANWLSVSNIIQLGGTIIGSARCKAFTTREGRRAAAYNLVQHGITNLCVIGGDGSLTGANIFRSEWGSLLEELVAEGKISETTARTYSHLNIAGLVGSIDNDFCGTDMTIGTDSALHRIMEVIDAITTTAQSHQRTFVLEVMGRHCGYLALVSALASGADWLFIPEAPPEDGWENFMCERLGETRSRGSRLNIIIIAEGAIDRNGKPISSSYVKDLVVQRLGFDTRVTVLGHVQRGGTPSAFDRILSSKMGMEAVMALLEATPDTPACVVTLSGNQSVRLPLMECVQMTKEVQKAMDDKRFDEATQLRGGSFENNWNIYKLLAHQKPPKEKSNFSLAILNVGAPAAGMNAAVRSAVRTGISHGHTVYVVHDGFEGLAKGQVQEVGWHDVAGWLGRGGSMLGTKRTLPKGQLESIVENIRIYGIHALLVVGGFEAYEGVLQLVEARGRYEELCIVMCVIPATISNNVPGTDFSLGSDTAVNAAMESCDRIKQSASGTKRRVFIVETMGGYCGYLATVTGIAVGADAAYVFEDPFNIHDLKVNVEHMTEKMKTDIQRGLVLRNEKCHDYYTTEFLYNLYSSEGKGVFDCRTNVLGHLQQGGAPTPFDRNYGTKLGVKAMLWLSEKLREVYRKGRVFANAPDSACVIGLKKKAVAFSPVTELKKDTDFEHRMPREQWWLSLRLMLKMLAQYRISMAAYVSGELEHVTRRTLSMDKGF
UniProt Q9NXJ5: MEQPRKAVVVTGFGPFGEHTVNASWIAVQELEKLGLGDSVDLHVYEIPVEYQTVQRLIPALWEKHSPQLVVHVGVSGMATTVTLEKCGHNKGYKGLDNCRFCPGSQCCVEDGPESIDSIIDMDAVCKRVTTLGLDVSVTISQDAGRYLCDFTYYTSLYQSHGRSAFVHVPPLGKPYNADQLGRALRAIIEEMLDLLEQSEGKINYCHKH
UniProt P30613: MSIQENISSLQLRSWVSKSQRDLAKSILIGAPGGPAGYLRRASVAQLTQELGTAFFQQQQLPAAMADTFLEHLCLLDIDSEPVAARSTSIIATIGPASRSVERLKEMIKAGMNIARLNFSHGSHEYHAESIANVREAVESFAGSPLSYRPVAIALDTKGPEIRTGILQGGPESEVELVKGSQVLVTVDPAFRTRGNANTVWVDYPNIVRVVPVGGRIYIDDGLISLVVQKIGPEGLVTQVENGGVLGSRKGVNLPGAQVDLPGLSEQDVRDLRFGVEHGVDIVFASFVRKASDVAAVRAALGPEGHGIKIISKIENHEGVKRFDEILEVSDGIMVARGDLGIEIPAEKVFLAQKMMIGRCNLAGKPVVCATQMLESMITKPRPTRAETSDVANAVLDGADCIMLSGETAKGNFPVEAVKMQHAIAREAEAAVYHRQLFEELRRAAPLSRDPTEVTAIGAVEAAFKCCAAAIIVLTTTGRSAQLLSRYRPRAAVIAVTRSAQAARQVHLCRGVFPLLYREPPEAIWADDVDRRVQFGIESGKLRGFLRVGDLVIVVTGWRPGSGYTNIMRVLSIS
UniProt Q9Y2B2: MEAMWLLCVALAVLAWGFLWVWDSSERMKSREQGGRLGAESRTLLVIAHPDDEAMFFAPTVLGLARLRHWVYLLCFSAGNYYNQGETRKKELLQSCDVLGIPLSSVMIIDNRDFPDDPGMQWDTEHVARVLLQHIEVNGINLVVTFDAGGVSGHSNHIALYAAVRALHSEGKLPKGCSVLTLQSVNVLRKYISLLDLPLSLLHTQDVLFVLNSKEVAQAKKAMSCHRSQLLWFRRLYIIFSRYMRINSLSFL
UniProt Q8IWS0: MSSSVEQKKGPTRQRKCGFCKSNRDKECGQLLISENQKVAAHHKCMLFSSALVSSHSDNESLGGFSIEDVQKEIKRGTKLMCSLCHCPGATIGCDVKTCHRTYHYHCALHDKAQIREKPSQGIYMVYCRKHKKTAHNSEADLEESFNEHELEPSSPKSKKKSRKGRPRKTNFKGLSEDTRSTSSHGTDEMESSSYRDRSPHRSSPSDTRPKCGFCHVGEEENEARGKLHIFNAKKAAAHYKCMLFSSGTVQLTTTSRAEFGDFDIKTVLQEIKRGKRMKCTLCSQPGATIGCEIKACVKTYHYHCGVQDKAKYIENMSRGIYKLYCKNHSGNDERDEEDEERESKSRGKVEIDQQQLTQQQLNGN
UniProt Q99570, whole entry, looked up: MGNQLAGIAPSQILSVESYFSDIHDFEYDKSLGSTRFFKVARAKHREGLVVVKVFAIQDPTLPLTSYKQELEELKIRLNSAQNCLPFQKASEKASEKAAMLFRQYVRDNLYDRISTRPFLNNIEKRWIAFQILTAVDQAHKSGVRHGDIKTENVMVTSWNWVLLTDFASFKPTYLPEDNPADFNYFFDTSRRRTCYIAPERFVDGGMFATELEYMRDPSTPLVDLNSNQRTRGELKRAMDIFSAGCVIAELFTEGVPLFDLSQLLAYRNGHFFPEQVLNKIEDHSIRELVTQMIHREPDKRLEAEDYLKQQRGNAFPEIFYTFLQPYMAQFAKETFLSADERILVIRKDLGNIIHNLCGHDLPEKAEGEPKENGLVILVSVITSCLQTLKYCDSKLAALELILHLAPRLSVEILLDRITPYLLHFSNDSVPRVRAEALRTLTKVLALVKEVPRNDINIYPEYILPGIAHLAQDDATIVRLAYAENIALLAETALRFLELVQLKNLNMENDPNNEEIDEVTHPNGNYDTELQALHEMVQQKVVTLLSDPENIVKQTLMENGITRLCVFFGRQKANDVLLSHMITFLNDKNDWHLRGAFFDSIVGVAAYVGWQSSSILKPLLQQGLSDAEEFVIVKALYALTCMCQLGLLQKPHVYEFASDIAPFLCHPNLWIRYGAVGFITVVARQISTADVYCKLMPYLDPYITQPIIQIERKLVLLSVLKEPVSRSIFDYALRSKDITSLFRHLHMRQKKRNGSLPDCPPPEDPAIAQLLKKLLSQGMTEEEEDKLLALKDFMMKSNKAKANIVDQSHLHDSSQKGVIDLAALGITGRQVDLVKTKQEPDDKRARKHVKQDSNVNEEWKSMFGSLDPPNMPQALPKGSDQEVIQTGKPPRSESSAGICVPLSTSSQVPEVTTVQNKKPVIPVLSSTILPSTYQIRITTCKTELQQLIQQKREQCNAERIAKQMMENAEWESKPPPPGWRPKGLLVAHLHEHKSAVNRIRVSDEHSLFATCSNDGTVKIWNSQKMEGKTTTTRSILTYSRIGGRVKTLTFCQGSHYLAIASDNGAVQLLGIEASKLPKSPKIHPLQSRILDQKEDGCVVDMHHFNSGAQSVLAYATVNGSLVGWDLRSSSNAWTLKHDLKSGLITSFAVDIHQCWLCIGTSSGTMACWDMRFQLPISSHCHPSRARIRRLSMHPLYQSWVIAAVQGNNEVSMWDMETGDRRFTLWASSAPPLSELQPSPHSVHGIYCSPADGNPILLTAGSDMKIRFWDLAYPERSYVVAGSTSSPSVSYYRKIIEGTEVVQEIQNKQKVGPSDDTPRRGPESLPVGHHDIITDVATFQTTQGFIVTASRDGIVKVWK
UniProt Q9UBF8: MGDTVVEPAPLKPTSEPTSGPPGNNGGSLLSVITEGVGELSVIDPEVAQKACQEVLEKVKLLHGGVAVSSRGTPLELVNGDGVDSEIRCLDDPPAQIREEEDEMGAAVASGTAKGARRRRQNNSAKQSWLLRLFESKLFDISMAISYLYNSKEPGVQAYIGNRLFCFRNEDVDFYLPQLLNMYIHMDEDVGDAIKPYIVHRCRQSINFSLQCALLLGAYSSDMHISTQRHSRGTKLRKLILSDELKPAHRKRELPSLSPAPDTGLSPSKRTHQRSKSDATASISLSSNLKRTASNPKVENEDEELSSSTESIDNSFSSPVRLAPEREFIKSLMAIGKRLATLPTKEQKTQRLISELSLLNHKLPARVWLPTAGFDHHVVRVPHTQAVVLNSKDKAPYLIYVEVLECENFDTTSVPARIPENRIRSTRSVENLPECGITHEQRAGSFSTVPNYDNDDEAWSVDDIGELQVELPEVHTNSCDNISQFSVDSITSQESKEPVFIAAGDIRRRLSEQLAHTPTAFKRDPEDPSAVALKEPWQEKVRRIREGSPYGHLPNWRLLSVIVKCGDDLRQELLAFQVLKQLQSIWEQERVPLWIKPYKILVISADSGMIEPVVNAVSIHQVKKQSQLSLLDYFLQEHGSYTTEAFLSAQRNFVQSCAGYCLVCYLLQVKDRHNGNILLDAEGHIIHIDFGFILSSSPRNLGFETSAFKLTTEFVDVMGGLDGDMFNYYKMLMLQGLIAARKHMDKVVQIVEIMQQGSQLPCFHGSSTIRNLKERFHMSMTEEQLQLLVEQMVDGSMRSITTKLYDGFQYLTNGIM
UniProt O75167: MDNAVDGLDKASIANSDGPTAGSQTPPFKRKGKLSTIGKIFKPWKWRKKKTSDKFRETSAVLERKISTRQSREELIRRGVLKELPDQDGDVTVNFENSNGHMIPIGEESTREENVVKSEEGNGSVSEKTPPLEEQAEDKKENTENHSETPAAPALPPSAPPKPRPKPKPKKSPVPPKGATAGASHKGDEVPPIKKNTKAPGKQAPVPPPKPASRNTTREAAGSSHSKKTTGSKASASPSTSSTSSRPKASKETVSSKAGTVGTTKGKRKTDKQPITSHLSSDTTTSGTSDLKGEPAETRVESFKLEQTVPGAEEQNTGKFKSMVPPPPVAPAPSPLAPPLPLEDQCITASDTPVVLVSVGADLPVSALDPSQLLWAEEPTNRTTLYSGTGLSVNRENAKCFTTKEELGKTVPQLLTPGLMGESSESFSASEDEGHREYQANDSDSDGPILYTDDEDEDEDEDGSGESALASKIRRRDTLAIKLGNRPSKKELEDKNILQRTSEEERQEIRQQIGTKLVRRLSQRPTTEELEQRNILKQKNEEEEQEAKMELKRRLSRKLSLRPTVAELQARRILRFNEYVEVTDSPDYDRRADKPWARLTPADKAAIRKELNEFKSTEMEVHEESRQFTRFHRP
UniProt Q16877: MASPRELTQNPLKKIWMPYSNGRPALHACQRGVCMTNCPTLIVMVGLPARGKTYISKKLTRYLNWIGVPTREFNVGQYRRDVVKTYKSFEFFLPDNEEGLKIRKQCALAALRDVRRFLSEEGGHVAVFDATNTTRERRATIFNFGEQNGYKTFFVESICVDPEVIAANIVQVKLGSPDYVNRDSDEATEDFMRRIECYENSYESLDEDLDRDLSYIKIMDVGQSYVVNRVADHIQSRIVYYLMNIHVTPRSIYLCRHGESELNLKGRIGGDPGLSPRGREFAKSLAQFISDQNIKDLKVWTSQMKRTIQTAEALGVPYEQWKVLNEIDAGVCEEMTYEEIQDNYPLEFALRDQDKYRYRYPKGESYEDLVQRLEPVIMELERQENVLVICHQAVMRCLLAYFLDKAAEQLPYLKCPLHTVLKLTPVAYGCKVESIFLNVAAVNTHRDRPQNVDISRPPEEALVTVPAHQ
UniProt Q96S52: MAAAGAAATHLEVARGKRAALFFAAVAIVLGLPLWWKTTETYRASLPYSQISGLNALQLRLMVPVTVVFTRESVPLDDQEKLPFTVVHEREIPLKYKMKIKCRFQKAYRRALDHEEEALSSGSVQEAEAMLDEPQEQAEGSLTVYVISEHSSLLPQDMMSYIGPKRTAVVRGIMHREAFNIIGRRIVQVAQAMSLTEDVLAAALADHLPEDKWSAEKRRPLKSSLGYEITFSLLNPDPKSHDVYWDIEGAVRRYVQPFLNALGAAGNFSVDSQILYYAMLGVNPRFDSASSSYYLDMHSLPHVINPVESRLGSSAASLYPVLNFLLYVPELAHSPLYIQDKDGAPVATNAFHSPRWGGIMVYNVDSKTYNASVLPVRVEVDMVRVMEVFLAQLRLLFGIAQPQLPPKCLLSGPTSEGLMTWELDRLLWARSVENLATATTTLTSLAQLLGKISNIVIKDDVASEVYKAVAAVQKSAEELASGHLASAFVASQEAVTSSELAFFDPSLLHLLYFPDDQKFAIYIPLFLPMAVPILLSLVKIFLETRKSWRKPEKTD

compound: c1cn2cc(-c3ccc4cn[nH]c4c3)nc(Nc3ccc(N4CCOCC4)cc3)c2n1 [entospletinib]; assay: log2 fold change, soluble protein after heating vs DMSO (PISA); higher = thermal stabilisation; K562 cells, 10 uM, 30 min; active = over 0.2 and 3.5 SD of the protein, either way, in both replicates (recomputed)
Summary of the method: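 For each measurement, 10 μM compound was applied for 30 min to K562 cells at 2×10^6 cells/mL. Aliquots were heated for 3 min across 48°C-58°C, pooled, and extracted in PBS with 0.5% NP-40 at 4°C; the supernatant after 21,000xg for 90 min was soluble protein. This was quantified by TMTpro 16plex LC-MS/MS with channel sums equalised, and thermal stability was reported relative to control samples from duplicates, on a log2 fold-change scale.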

log2 fold change, inactive:
PIH1D1 (UniProt Q9NWS0) -0.023
PIGN (UniProt O95427) -0.022
PICALM (UniProt Q13492) 0.023
PITHD1 (UniProt Q9GZP4) 0.13
PFKL isoform 2 (UniProt P17858) -0.044
PGPEP1 (UniProt Q9NXJ5) -0.276
PIK3R2 (UniProt O00459) 0.012
PIGQ (UniProt Q9BRB3) 0.156
PFDN6 (UniProt O15212) 0.008
PKLR (UniProt P30613) -0.044
PHF19 isoform 2 (UniProt Q5T6S3) -0.091
PIGL (UniProt Q9Y2B2) -0.021
PHF6 (UniProt Q8IWS0) 0.089
PITPNA (UniProt Q00169) -0.058
PIK3R4 (UniProt Q99570) -0.009
PFKM isoform 3 (UniProt P08237) -0.027
PI4KB (UniProt Q9UBF8) 0.116
PHACTR2 isoform 4 (UniProt O75167) -0.007
PFN1 (UniProt P07737) -0.028
PFKFB4 (UniProt Q16877) -0.022
PFKFB3 isoform 4 (UniProt Q16875) -0.042
PHF23 (UniProt Q9BUL5) -0.053
PIGS (UniProt Q96S52) 0.005
PGAM1 (UniProt P18669) 0.022
PKMYT1 (UniProt Q99640) 0.044
PGRMC2 isoform 2 (UniProt O15173) 0.016
PI4KA (UniProt P42356) 0.123
PLCD1 isoform 2 (UniProt P51178) -0.01
PIEZO1 (UniProt Q92508) 0.022

Not a retest: entries from further up.
log2 fold change, inactive:
PHF19 isoform 2 (UniProt Q5T6S3) -0.091
PIGL (UniProt Q9Y2B2) -0.021
